Assay results as given in doi:10.1101/061432.
Construct, isoform or probe ends are uncertain for at least one entry.

Columns and labels:
[1] = tested on: MBP-CR3HD CUX1-Ancestral; assay: EMSA; conditions: 1 mM MgCl2, 1 ug poly(dI-dC)
[2] = tested on: MBP-CR3HD CUX1-Δ4aa (Phalacrocorax harrisi (Galapagos cormorant)); assay: EMSA; conditions: 1 mM MgCl2, 1 ug poly(dI-dC), shift equal to Ancestral

“TCGAGACGGTATCGATAAGCTTCTTTTC (double strand) [CUX1 CR3HD target probe]”: binds [1]; binds [2].
